Experimental findings from PMC8850458, “The AUTOTAC chemical biology platform for targeted protein degradation via the autophagy-lysosome system” (Nature Communications, 2022) are described below.

The test deals with T1, 12-mer V-BiP peptide (V-…-biotin).
T1 sequence (peptide, biotin, C-terminal): VEEDKKEDVGTK
Put plainly: pull-down; biotinylated peptide on streptavidin agarose; 200 ug HEK293T extract in binding buffer (0.05% Tween-20, 10% glycerol, 0.2 M KCl, 20 mM HEPES pH 7.9), 4 C, 2 h; immunoblot; only the target purified.

No constants are given. Whether binding was seen depends on the method and setting. In cells and extracts the contact can be indirect.

In the case of “p62/Sequestosome-1/SQSTM1 (from UniProt Q13501 1-440)”, the binding entry is listed as “no binding”.
